This note sets out measurements from doi:10.1101/788778.

By UniProt entry, the sequences of proteins in these tests, tags left out. Where a name states a change or a piece, a line headed by the entry shows the natural chain unless it says otherwise.
UniProt O14744: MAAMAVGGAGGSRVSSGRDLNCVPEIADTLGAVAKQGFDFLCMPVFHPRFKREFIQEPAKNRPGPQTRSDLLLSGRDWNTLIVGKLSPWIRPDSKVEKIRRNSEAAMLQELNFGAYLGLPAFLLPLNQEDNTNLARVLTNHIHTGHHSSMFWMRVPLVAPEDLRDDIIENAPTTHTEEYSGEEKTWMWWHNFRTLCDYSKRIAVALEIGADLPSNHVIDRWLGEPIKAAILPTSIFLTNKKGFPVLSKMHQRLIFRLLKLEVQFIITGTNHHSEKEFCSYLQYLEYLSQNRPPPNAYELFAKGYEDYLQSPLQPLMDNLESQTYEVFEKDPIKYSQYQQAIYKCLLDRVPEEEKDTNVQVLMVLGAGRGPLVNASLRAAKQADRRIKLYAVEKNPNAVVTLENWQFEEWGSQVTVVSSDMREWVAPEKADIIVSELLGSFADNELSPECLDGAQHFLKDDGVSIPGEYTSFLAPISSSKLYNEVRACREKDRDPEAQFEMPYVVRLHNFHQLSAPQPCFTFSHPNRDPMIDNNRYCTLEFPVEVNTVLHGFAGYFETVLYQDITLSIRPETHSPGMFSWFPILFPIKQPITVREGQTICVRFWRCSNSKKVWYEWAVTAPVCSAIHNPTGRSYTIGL
UniProt Q16637: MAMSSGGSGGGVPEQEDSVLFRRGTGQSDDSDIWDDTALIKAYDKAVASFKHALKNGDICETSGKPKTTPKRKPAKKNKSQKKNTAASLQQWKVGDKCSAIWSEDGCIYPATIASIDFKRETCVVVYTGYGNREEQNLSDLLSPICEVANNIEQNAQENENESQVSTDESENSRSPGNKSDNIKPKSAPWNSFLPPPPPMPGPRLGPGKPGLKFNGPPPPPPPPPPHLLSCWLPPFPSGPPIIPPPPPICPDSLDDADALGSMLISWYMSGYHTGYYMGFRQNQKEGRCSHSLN
UniProt Q7Z333: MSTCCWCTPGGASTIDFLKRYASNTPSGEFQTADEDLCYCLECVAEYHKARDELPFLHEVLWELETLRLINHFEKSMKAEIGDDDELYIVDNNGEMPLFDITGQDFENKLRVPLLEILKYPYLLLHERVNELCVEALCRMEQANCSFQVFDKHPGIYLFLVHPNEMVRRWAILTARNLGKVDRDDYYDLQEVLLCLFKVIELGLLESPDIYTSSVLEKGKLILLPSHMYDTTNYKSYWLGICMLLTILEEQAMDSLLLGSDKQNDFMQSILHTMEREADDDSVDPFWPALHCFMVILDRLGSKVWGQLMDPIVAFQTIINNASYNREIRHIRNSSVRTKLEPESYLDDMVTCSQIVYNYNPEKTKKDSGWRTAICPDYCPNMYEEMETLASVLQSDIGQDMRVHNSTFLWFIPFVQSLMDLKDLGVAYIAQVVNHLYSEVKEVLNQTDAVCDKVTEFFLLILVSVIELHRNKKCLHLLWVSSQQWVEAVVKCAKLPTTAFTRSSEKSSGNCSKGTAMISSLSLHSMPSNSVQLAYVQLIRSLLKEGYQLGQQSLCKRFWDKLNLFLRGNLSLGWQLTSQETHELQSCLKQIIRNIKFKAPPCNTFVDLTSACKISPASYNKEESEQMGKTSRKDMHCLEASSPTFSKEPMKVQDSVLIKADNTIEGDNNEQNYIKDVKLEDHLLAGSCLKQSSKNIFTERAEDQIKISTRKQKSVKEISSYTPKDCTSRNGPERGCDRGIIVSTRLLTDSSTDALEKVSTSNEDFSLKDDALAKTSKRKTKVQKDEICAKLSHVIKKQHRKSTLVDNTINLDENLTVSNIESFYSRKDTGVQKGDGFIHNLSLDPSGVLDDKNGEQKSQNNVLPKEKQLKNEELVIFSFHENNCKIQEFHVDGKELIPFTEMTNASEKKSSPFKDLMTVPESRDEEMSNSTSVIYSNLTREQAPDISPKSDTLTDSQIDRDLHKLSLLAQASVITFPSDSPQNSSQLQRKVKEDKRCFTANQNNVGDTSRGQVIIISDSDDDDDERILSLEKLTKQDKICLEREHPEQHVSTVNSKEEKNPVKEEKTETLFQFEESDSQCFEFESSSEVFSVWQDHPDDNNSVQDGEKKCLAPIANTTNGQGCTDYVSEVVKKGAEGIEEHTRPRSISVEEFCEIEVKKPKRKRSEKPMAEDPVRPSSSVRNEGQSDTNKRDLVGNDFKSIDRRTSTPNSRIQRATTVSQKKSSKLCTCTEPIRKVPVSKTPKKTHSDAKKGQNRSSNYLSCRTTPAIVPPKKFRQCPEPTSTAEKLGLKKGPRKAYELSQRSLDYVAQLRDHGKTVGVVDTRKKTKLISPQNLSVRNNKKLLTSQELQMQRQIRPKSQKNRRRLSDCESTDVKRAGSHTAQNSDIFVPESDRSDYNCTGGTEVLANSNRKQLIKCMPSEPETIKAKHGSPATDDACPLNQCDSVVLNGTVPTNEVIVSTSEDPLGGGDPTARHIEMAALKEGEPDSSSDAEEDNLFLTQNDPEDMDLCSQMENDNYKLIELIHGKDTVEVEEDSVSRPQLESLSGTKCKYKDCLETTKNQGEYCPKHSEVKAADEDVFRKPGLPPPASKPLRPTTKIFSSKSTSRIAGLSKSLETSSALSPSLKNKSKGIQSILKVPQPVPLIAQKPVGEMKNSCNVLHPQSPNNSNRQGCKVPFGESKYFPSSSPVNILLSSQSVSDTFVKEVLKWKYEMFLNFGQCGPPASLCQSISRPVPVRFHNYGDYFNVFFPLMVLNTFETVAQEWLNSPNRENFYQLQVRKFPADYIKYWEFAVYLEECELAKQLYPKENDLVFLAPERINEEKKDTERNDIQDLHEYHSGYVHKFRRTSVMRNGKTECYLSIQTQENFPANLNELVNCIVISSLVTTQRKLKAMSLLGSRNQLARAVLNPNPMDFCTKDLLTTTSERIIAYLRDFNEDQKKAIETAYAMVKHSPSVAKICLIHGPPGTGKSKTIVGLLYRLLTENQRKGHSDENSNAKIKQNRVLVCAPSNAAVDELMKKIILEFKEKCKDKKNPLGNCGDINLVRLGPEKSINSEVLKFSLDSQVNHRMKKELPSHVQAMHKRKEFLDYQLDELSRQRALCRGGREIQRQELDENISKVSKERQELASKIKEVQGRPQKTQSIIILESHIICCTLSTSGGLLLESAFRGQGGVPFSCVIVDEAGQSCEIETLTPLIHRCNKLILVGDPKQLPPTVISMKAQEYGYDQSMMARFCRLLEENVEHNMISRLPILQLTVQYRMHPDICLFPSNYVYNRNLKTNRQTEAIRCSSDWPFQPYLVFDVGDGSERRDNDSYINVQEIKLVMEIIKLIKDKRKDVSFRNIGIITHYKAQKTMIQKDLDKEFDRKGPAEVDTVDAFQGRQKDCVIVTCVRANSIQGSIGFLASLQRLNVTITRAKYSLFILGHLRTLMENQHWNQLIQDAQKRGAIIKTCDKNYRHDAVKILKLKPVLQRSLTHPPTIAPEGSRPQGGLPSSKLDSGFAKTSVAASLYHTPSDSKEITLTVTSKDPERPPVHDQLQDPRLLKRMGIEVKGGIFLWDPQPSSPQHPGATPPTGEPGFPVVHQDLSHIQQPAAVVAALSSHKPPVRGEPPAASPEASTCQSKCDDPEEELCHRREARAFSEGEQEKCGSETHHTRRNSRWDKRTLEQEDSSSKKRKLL
UniProt Q13148: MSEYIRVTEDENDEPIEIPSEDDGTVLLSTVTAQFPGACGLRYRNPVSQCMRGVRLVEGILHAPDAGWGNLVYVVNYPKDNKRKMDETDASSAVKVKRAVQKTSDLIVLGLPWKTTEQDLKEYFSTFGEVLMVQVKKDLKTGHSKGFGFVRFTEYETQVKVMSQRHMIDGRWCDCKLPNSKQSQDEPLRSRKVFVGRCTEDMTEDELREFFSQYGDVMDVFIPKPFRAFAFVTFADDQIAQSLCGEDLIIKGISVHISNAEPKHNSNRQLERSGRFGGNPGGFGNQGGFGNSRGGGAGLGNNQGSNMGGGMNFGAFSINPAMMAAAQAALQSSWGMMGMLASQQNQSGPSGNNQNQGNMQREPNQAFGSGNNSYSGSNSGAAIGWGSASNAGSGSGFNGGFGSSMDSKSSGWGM
UniProt P35637: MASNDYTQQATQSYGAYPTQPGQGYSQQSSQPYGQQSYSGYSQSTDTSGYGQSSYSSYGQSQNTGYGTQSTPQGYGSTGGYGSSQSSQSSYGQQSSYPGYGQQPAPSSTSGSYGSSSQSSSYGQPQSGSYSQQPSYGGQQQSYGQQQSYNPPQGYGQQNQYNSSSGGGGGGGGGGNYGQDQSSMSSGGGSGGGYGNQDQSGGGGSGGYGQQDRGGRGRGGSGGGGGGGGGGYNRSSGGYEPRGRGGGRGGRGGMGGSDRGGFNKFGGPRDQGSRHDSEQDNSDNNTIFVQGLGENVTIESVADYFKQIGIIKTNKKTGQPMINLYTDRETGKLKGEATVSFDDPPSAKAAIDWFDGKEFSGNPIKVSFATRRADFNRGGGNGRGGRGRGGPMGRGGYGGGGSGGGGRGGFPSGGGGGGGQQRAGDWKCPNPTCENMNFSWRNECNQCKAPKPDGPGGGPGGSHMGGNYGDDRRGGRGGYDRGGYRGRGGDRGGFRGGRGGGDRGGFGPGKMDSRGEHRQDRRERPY

Results are given in words; binding and its absence hold for the method and conditions named. Binding seen in cells or lysates may run through a third protein. Some binding calls cover weakened binding; strength is not graded here.

What all share (assay): co-IP
Assay [1] concerns the target T1, XRN2 (human (endogenous in HEK293)) (UniProt Q9H0D6).
T1 sequence: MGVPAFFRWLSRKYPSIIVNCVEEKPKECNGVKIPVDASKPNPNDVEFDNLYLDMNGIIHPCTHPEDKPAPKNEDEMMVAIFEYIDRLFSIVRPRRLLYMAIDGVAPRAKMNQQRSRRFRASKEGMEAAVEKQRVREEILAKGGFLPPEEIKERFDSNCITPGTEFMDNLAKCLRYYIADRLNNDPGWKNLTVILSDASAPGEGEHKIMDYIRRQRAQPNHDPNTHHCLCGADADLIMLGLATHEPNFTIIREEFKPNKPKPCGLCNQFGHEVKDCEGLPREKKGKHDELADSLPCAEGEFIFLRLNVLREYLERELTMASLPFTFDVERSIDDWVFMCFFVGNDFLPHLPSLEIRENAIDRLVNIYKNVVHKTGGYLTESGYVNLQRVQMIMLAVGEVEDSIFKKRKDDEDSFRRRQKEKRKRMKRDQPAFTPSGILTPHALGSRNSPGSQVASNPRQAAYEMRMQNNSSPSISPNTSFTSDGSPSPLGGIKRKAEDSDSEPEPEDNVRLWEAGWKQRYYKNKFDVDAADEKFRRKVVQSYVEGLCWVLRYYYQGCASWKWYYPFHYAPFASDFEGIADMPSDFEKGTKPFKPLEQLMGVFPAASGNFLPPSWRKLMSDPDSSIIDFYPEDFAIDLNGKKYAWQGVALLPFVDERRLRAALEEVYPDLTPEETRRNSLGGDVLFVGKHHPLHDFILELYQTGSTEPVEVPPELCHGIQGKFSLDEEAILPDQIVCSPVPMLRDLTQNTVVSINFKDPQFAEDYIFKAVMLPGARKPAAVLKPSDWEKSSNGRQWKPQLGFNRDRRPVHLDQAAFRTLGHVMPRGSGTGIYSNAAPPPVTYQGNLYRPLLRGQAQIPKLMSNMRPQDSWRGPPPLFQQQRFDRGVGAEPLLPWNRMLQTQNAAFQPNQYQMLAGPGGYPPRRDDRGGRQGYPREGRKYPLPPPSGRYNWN

For assay [2], the target named is PRMT5 (human (endogenous in HEK293)) (UniProt O14744).
The target of assay [3] is SMN (human (endogenous in HEK293)) (UniProt Q16637).
Assay [4] deals with Senataxin (SETX) (human (endogenous in HEK293)) (UniProt Q7Z333).
The target of assay [5] is TDP-43 (TARDBP) (human (endogenous in HEK293 and Raji)) (UniProt Q13148).

As to “Senataxin (SETX) (from UniProt Q7Z333 1-2677)”, the binding entry in assay [1], in assay [2] and in assay [3] was “binds” throughout.

Regarding FUS (from UniProt P35637 1-526), the binding entry in assay [4], in assay [1], in assay [5], in assay [2] and in assay [3] was “binds” in each case.

“TDP-43 (TARDBP) (from UniProt Q13148-1 1-414)”: the binding result in assay [1] and in assay [2] was “binds” throughout.

For the substance SMN (from UniProt Q16637 1-294), the binding entry in assay [2] was “binds”.
